Reference: the supplement of paper PMC12819154, “High-throughput peptide-centric local stability assay extends protein–ligand identification to membrane proteins, tissues and bacteria” (Nature Structural & Molecular Biology, 2025)
Some of the results follow. Most values lie at the level of the controls, where differences are scatter.

By UniProt entry, the sequences of proteins in these tests, tags left out. Where a name states a change or a piece, a line headed by the entry shows the natural chain unless it says otherwise.
UniProt P07737, whole entry: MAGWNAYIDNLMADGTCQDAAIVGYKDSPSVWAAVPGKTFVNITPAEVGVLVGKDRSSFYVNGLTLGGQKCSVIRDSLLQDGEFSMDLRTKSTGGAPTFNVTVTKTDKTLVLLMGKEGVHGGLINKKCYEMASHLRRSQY
UniProt P11177, whole entry: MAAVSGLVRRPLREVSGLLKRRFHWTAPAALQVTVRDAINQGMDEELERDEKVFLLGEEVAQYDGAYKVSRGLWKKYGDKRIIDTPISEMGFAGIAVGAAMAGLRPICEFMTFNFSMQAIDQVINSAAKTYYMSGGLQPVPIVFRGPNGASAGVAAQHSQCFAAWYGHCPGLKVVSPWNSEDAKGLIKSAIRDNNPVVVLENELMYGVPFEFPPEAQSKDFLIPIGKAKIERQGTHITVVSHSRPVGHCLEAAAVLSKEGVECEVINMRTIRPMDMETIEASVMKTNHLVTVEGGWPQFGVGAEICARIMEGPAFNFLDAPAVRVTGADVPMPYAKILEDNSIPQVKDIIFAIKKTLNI
UniProt P02511: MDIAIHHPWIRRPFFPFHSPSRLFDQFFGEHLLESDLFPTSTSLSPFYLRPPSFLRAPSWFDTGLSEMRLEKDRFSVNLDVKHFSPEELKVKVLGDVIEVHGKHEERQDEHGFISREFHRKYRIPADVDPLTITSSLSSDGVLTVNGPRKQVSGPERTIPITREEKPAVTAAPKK
UniProt P08579, whole entry: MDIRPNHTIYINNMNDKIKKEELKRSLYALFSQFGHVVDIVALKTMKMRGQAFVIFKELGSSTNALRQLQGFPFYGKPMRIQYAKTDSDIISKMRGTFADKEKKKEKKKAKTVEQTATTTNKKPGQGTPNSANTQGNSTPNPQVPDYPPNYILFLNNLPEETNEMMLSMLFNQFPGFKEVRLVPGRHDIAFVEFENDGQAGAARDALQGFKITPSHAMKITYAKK
UniProt P02144: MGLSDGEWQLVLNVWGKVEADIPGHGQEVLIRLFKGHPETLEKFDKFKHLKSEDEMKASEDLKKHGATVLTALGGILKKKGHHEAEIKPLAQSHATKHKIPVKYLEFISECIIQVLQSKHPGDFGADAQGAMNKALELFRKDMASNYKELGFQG
UniProt P09429: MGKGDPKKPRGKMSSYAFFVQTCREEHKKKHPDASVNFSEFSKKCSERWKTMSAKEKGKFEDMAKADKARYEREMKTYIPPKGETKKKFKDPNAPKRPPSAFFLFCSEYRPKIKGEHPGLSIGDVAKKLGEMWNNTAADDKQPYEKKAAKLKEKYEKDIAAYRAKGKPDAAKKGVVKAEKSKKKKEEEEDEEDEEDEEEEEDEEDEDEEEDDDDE
UniProt P11717, whole entry: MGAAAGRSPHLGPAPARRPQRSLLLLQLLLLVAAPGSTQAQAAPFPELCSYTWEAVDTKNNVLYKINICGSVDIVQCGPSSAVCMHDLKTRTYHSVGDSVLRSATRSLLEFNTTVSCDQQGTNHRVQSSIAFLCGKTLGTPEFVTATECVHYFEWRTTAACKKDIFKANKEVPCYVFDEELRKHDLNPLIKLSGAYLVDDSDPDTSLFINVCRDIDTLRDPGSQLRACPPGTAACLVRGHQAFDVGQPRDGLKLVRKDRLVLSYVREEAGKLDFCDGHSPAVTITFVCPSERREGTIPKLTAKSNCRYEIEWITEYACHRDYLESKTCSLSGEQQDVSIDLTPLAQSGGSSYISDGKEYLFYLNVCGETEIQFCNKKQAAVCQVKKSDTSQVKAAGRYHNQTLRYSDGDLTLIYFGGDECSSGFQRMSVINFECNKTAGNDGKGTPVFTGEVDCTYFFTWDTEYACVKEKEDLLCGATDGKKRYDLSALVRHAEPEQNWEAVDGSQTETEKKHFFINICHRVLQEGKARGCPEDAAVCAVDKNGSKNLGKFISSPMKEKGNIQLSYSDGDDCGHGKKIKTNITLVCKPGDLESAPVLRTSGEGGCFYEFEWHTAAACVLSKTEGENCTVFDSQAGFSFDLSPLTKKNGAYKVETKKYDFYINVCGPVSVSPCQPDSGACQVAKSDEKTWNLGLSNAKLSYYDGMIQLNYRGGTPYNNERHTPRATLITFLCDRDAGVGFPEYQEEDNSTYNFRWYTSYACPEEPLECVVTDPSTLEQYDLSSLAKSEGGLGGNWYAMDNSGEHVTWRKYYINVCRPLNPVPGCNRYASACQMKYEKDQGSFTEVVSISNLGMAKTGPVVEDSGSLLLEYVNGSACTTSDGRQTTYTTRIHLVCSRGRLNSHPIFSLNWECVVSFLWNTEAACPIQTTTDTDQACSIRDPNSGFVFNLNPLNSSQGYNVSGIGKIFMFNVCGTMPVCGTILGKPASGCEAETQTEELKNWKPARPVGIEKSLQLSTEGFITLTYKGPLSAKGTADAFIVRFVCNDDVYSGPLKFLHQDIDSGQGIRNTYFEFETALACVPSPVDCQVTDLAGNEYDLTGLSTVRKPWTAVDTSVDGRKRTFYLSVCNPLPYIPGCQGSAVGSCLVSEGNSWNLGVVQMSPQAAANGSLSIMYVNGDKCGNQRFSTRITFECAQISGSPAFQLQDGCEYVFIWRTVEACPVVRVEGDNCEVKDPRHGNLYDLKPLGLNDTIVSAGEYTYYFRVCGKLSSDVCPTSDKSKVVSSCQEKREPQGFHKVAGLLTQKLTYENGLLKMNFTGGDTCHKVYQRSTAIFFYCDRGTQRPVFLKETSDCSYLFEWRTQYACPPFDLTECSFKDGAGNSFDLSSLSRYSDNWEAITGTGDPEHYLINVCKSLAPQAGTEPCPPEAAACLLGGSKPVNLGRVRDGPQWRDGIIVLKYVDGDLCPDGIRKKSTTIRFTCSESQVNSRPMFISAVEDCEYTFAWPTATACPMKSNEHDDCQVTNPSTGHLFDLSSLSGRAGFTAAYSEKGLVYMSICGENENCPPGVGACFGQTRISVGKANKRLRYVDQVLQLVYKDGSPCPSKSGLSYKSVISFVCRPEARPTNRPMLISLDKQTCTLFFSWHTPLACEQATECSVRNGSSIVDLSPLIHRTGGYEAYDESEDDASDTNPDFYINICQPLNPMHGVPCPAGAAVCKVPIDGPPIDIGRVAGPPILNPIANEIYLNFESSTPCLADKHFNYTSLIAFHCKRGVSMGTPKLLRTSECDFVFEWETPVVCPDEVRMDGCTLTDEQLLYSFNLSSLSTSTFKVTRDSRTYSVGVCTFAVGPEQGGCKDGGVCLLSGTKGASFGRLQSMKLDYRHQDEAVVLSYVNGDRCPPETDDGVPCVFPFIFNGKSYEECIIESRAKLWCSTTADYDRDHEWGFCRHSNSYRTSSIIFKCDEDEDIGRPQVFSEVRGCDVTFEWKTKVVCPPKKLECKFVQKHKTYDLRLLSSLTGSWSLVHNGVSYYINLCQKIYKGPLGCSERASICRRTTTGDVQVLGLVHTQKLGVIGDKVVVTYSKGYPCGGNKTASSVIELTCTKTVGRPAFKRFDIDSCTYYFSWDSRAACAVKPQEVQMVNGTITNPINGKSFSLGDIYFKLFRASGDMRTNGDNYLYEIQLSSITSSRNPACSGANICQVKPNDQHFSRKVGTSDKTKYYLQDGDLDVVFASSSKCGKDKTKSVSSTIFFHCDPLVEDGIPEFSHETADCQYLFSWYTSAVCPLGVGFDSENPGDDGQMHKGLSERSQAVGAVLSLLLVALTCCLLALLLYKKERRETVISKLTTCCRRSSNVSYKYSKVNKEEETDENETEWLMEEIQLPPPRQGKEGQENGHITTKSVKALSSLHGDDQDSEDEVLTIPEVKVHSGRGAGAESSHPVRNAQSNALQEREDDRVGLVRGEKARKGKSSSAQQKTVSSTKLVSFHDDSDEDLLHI
UniProt P02654: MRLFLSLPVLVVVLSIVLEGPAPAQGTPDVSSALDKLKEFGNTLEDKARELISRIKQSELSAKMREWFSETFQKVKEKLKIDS
UniProt P07686: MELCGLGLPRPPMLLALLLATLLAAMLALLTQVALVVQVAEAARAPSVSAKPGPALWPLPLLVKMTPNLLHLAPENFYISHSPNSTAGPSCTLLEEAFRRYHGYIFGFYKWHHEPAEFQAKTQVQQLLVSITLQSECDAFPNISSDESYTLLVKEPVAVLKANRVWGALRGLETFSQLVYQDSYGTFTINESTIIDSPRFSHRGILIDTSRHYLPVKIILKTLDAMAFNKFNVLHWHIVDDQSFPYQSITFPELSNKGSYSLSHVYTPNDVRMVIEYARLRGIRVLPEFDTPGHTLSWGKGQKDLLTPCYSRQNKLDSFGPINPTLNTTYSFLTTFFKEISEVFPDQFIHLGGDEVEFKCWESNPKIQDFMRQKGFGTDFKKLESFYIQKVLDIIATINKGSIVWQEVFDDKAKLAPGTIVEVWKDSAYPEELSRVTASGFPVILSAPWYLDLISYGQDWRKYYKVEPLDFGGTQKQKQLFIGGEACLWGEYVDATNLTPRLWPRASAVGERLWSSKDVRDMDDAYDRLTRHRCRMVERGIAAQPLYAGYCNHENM
UniProt P04792, whole entry: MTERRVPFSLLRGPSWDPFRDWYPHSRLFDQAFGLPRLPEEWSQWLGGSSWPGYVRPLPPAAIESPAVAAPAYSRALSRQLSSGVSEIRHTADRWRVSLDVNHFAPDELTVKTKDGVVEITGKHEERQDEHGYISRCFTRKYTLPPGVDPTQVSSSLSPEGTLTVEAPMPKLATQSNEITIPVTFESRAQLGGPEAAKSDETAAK
UniProt P05783: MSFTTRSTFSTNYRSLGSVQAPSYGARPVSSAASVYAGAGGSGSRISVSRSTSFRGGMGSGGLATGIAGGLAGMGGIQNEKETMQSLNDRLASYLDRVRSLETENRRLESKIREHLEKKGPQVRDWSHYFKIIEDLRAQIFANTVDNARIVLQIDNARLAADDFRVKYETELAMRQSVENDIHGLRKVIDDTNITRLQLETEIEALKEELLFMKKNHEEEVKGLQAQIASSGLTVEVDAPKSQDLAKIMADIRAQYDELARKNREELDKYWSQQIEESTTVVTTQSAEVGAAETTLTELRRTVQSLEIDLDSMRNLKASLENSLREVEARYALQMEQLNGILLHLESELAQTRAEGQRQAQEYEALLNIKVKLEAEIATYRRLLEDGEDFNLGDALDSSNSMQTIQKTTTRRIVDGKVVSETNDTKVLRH
UniProt P02008: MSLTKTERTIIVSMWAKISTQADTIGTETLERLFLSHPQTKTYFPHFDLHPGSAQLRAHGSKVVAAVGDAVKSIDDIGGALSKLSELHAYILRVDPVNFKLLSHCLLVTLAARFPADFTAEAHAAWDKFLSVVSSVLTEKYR
UniProt P04350, whole entry: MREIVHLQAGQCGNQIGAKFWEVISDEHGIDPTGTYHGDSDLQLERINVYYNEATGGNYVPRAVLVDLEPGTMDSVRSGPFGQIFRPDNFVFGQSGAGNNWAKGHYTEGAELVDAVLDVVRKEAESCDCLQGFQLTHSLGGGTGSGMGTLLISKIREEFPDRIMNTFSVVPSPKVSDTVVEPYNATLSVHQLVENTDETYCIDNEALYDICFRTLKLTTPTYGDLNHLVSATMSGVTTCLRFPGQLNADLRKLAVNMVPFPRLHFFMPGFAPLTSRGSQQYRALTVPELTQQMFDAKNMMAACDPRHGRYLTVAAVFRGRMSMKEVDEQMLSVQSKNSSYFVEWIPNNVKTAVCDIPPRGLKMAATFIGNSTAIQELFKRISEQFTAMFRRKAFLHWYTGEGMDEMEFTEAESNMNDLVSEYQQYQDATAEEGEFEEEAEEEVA
UniProt P0C7V9: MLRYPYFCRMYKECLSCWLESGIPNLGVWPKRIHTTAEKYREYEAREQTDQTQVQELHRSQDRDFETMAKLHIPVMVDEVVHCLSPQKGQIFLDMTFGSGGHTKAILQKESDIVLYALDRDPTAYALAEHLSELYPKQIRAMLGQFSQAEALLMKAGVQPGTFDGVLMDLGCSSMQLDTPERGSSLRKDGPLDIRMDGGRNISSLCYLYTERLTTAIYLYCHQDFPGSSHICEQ
UniProt P11021: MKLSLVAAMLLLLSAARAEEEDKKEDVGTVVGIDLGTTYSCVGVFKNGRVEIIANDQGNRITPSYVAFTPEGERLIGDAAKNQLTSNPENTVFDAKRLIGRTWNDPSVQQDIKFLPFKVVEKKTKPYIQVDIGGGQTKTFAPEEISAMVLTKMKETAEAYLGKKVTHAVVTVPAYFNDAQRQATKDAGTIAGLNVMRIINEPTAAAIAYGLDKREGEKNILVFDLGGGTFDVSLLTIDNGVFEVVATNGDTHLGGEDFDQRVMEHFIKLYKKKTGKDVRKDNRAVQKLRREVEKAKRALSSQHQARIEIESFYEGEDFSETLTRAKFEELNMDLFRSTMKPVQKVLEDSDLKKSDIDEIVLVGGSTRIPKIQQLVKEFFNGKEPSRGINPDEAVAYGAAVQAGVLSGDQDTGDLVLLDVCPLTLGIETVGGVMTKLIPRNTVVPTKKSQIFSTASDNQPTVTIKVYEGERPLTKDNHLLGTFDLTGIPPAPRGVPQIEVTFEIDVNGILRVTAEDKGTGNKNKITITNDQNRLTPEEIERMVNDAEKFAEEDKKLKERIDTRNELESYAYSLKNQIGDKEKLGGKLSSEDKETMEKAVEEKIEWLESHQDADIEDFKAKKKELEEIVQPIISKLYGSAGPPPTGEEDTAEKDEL

The targets below were run with CN[C@@H]1C[C@H]2O[C@@](C)([C@@H]1OC)n1c3ccccc3c3c4c(c5c6ccccc6n2c5c31)C(=O)NC4 [staurosporine] (assay: log2 fold change of tryptic peptide abundance, ligand vs vehicle (limited proteolysis) (log2 ratio); higher = more trypsin-susceptible (destabilized)). Conditions: ligand concentration: 20 uM; sample: K562 cleared lysate; digestion: 4 min, 22 C (HT-PELSA RT4min, Orbitrap Astral).

**Q.** Which log2 fold change does the source give for “POLB (peptide sequence: IAEKIDEFLATGK, peptide start residue: 69) (UniProt P06746)” here?
**A.** -0.209

**Q.** Which log2 fold change does the source give for “ITGB1 (peptide sequence: WDTGENPIYK, peptide start residue: 775) (UniProt P05556)” here?
**A.** -0.0939

**Q.** “PFN1 (peptide sequence: EGVHGGLINKK, peptide start residue: 117) (UniProt P07737)” was tested. Which log2 fold change did it give?
**A.** 0.47

**Q.** For “PDHB (peptide sequence: VVSPWNSEDAK, peptide start residue: 174) (UniProt P11177)”, which log2 fold change is on record?
**A.** 0.233

**Q.** For “CRYAB (peptide sequence: MDIAIHHPWIR, peptide start residue: 1) (UniProt P02511)”, which log2 fold change is on record?
**A.** 0.061

**Q.** “UniProt P11137 (peptide sequence: IDLSHVTSK, peptide start residue: 1699)” was tested. Which log2 fold change did it give?
**A.** -0.213

**Q.** How did the log2 fold change turn out when “CTSD (peptide sequence: QPGITFIAAK, peptide start residue: 185) (UniProt P07339)” was run?
**A.** 0.363

**Q.** With “UMPS (peptide sequence: GLQEVGLPLHR, peptide start residue: 353) (UniProt P11172)” as the target, how does the log2 fold change read?
**A.** 0.34

**Q.** With “SNRPB2 (peptide sequence: TVEQTATTTNK, peptide start residue: 112) (UniProt P08579)” as the target, how does the log2 fold change read?
**A.** -0.0964

**Q.** Which log2 fold change does the source give for “UniProt P02144 (peptide sequence: KGHHEAEIK, peptide start residue: 80)” here?
**A.** -0.0341

**Q.** How did the log2 fold change turn out when “HMGB1 (peptide sequence: YEKDIAAYR, peptide start residue: 155) (UniProt P09429)” was run?
**A.** 0.167

**Q.** With “UniProt P09629 (peptide sequence: DSDLAAESNFR, peptide start residue: 115)” as the target, how does the log2 fold change read?
**A.** 0.278

**Q.** With “IGF2R (peptide sequence: LVSFHDDSDEDLLHI, peptide start residue: 2477) (UniProt P11717)” as the target, how does the log2 fold change read?
**A.** -0.184

**Q.** Which log2 fold change does the source give for “SRC (peptide sequence: GSLLDFLK, peptide start residue: 325) (UniProt P12931)” here?
**A.** 0.863

**Q.** How did the log2 fold change turn out when “PDHA1 (peptide sequence: SGKGPILMELQTYR, peptide start residue: 275) (UniProt P08559)” was run?
**A.** 0.753

**Q.** “APOC1 (peptide sequence: MREWFSETFQK, peptide start residue: 64) (UniProt P02654)” was tested. Which log2 fold change did it give?
**A.** 0.409

**Q.** With “C5 (peptide sequence: GAKKPLER, peptide start residue: 615) (UniProt P01031)” as the target, how does the log2 fold change read?
**A.** -0.0186

**Q.** With “HEXB (peptide sequence: VLDIIATINK, peptide start residue: 391) (UniProt P07686)” as the target, how does the log2 fold change read?
**A.** 0.0769

**Q.** With “SNRPA (peptide sequence: MKGTFVER, peptide start residue: 97) (UniProt P09012)” as the target, how does the log2 fold change read?
**A.** 0.206

**Q.** Which log2 fold change does the source give for “HSPB1 (peptide sequence: AQLGGPEAAKSDETAAK, peptide start residue: 189) (UniProt P04792)” here?
**A.** -0.113

**Q.** With “KRT18 (peptide sequence: VIDDTNITR, peptide start residue: 188) (UniProt P05783)” as the target, how does the log2 fold change read?
**A.** 0.245

**Q.** With “HBZ (peptide sequence: LSELHAYILR, peptide start residue: 84) (UniProt P02008)” as the target, how does the log2 fold change read?
**A.** 0.155

**Q.** How did the log2 fold change turn out when “UniProt P04350 (peptide sequence: MAATFIGNSTAIQELFKR, peptide start residue: 363)” was run?
**A.** 0.465

**Q.** How did the log2 fold change turn out when “UniProt P0C7V9 (peptide sequence: LHIPVMVDEVVHCLSPQK, peptide start residue: 71)” was run?
**A.** 0.39

**Q.** For “MYH3 (peptide sequence: QLEEENKAK, peptide start residue: 1319) (UniProt P11055)”, which log2 fold change is on record?
**A.** 0.341

**Q.** With “UniProt P0C0S8 (peptide sequence: AGLQFPVGRVHR, peptide start residue: 22)” as the target, how does the log2 fold change read?
**A.** 0.26

**Q.** With “CAPN1 (peptide sequence: ESGCSFVLALMQK, peptide start residue: 414) (UniProt P07384)” as the target, how does the log2 fold change read?
**A.** 0.594

**Q.** Which log2 fold change does the source give for “HSPA5 (peptide sequence: LSSEDKETMEK, peptide start residue: 586) (UniProt P11021)” here?
**A.** 0.284
